Measured values taken from PubChem BioAssay AID1487 (National Center for Advancing Translational Sciences (NCATS), 2009).
Some of the results follow. The main result of the screen is listed elsewhere. These columns were measured beside it and carry no call. Most of these compounds were active or inconclusive in the main read-out, so they are no random draw. Potencies come from curve fits of mixed quality, noted in brackets.

Experiment: qHTS Assay for Modulators of Lamin A Splicing
Details: HeLa LMNA splicing GFP/RFP minigene ratio, 48 h
From the text: NCGC Assay Overview: Hutchinson-Gilford Progeria Syndrome (HGPS) is a pediatric premature aging disease caused by a spontaneous mutation in the lamin A/C (LMNA) gene. The mutation activates a cryptic splice site in the LMNA pre-mRNA which results in production of a pre-lamin A protein that cannot be processed properly. The mutant protein accumulates in the nucleus and negatively affects numerous cellular functions. Correction of the splicing defect in HGPS patient cells using a targeted oligonucleotide (exo11) leads to reversal of the cellular disease phenotypes. To identify small molecule modulators of aberrant LMNA splicing, a homogenous assay was constructed in HeLa cells that used a GFP containing minigene to report on correction of aberrant splicing in lamin A and a RFP (DsRed2) to report on cell viability, uniformity and nonspecific effects on the assay signal. This assay was adapted to laser-scanning microplate cytometry (Acumen, TTP Labtech) where miniaturization of the assay to a 1,536-well plate format was possible. References: Bowen, W. P.; Wylie, P. G. Application of Laser-Scanning Fluorescence Microplate Cytometry in High Content Screening. Assay Drug Dev Technol 2006;4:209-221. Scaffidi P, Misteli T. Reversal of the cellular phenotype in the premature aging disease Hutchinson-Gilford progeria syndrome. Nat.
NCGC Assay Protocol Summary: Reagents/Controls: Stable clones expressing DsRed2 and lamin A-EGFP were generated by Cell and Molecular Technologies in S3 HeLa cells. HeLa cells were prepared for the assay when they were 70-90% confluent. The cells were counted and resuspended in Opti-MEM I (no phenol red; Gibco), 2% FBS, 1% penicillin/ streptomycin (Gibco) at concentration of 120 cells/uL concentration. The suspension was passed through a Falcon basket filter with pore size 40um (Beckton Dickson). Control titrations: column […] 1536-well plate contained a sixteen point titration (1:2 dilutions) in duplicate of ancitabine (Sigma: A8598) beginning at 40 uM final concentration. Column 2 contained a sixteen point titration (1:2 dilutions) of cycloheximide beginning at 1.4 mM final concentration. Column 3 contained ancitabine at 40 uM and column 4 contained was the vehicle control (0.5% DMSO final concentration). Assay Steps: 5 uL of HeLa cells were plated in Aurora LoBase black clear bottom (cyclic-olefin polymer) 1536-well plates at a final density of 600 cells/well. Controls and library compounds were added with a 1536-well pin array using the Kalypsys pin-tool. The plates were then incubated for 48 hrs in a cell-culture incubator (37 °C; 5% CO2, 98% humidity). Following incubation the plates were read on the Acumen Explorer using the 488 nm laser. Data was collected on objects between 10 and 100 um in size. Cell objects were defined by a 15 um width x 10 um depth filter. The ratio of the total object intensity in PMT1 (500-530 nm emission; GFP) over PMT3 (575-640 nm emission; RFP) was calculated for analysis. Keywords: NIH Roadmap, MLSCN, MLI, MLSMR, qHTS, NCGC, lamin A, Progeria, RNA splicing.

[1] = measured here: RFP viability control channel
[2] = measured here: GFP splicing reporter channel

Row | Structure (SMILES) | AC50 [1] | AC50 [2]
1 | CCOC(=O)Cc1c(C)nc2c(-c3cccc(Br)c3)c[nH]n2c1=O | 2.51 µM [rising, partial curve, poor fit] | –
2 | O=C(c1ccc2c(c1)OCO2)N(Cc1cccs1)C1(C(=O)NC2CCCCC2)CCCCC1 | – | 0.178 µM [falling, full curve, poor fit]
3 | O=C(Cn1nnc(-c2ccccc2NC(=O)C2CC2)n1)NC1CCCCC1 | 0.1 µM [rising, full curve, poor fit] | –
4 | COc1ccc(NC(=S)N(CCc2c(C)[nH]c3ccc(C)cc23)Cc2cccs2)cc1 | 14.1 µM [rising, partial curve] | 11.2 µM [rising, partial curve, poor fit]
5 | CN1CCN(C2=C(Cl)C(=O)N(c3ccc(Cl)c(Cl)c3)C2=O)CC1 | 31.6 µM [rising, single point] | 14.1 µM [rising, single point]
6 | CC(=O)Nc1ccc(S(=O)(=O)N(C)S(=O)(=O)c2ccc(F)cc2)cc1 | 17.8 µM [rising, single point] | 17.8 µM [rising, single point]
7 | CCNc1nc(NC(C)(C)C)nc(SC(C(C)=O)C(C)=O)n1 | 3.98 µM [rising, partial curve] | –
8 | O=C(Cn1nnc(-c2ccccc2F)n1)Nc1cccc2ncccc12 | 3.16 µM [rising, full curve, poor fit] | 4.47 µM [rising, partial curve]
9 | O=[N+]([O-])c1ccc(COc2cccc(CNc3ccc(Br)cc3)c2)cc1 | – | 28.2 µM [rising, single point]
10 | Cc1[nH]c2ccc(F)cc2c1CCN(Cc1ccncc1)C(=S)Nc1ccc(F)cc1 | 5.62 µM [falling, single point] | 5.62 µM [falling, single point]
11 | S=C(NCCC1=CCCCC1)Nc1ccccc1 | – | 14.1 µM [rising, single point]
12 | CC(C)(C)c1cc(C(=O)N/N=C/c2ccc(O)cc2)n(-c2ccccc2)n1 | 0.316 µM [rising, full curve, poor fit] | –
13 | CCOC(=O)c1c(N2C(=O)C=CC2=O)sc(C)c1C | 14.1 µM [falling, single point] | –
14 | COc1ccc(-n2ccn(CC(=O)NCc3ccc(C)cc3)c(=O)c2=O)cc1OC | 17.8 µM [falling, single point] | 12.6 µM [falling, single point]
15 | Cc1ccc(NC(=S)/N=C(\N)Nc2nc(C)c3ccccc3n2)cc1C | 2.51 µM [rising, full curve] | –
16 | COc1ccc2c(c1)C1=NN(/C(C)=C/C(C)=O)C(c3cccc(F)c3)C1CC2 (stereo not given) | – | 8.91 µM [rising, partial curve]
17 | Cn1nnnc1SC(C(=O)Nc1cccc(C(F)(F)F)c1)c1ccccc1 (stereo not given) | 12.6 µM [rising, single point] | –
18 | COC(=O)c1c(-c2ccncc2)csc1NC(=O)c1ccoc1C | 3.98 µM [rising, single point] | –
19 | c1ccc(N2CCOCCOCCOCCOCCOCC2)cc1 | 3.98 µM [falling, full curve, poor fit] | –
20 | Cc1cc(C)n(CC(=O)O)n1 | 35.5 µM [rising, single point] | 35.5 µM [rising, single point]
21 | CCOC(=O)c1c(C)[nH]c(C(=O)COC(=O)C2(C)CC2(Cl)Cl)c1C (stereo not given) | 14.1 µM [rising, single point] | 35.5 µM [rising, single point]
22 | Cc1ccc(C)c(N2CCN(C(=O)c3cc(S(=O)(=O)N4CCC(C)CC4)cn3C)CC2)c1 | – | 0.141 µM [falling, single point]
23 | CCOc1ccc(C2NC(=O)C(C#N)=C(S)N2c2cccc(C)c2)cc1OC (stereo not given) | 35.5 µM [falling, partial curve, poor fit] | –
24 | O=C(OCc1cc(=O)n2cc(Br)ccc2n1)c1ccc(Cl)c(S(=O)(=O)NCc2ccccc2)c1 | 0.282 µM [rising, full curve, poor fit] | 1.78 µM [rising, partial curve]
25 | CC(C)c1ccc(-n2cccc2/C=C2/C(=N)N3C=CSC3=NC2=O)cc1 | 35.5 µM [rising, single point] | 35.5 µM [rising, single point]
26 | COC(=O)N/N=C\C=C\c1ccc2c(c1)OCO2 | 0.0794 µM [rising, full curve, poor fit] | –
27 | COc1ccc2oc(=O)c(-c3cn4c(n3)sc3cc(F)ccc34)cc2c1 | – | 0.02 µM [rising, full curve]
28 | CCOc1ccc(/C=N/NC(=O)CN2CCCCCCC2)cc1 | – | 11.2 µM [falling, partial curve, poor fit]

14 entries from above, sorted by SMILES length, smallest number first:
Row | Structure (SMILES) | AC50 [1] | AC50 [2]
20 | Cc1cc(C)n(CC(=O)O)n1 | 35.5 µM [rising, single point] | 35.5 µM [rising, single point]
19 | c1ccc(N2CCOCCOCCOCCOCCOCC2)cc1 | 3.98 µM [falling, full curve, poor fit] | –
28 | CCOc1ccc(/C=N/NC(=O)CN2CCCCCCC2)cc1 | – | 11.2 µM [falling, partial curve, poor fit]
8 | O=C(Cn1nnc(-c2ccccc2F)n1)Nc1cccc2ncccc12 | 3.16 µM [rising, full curve, poor fit] | 4.47 µM [rising, partial curve]
17 | Cn1nnnc1SC(C(=O)Nc1cccc(C(F)(F)F)c1)c1ccccc1 (stereo not given) | 12.6 µM [rising, single point] | –
1 | CCOC(=O)Cc1c(C)nc2c(-c3cccc(Br)c3)c[nH]n2c1=O | 2.51 µM [rising, partial curve, poor fit] | –
27 | COc1ccc2oc(=O)c(-c3cn4c(n3)sc3cc(F)ccc34)cc2c1 | – | 0.02 µM [rising, full curve]
5 | CN1CCN(C2=C(Cl)C(=O)N(c3ccc(Cl)c(Cl)c3)C2=O)CC1 | 31.6 µM [rising, single point] | 14.1 µM [rising, single point]
9 | O=[N+]([O-])c1ccc(COc2cccc(CNc3ccc(Br)cc3)c2)cc1 | – | 28.2 µM [rising, single point]
21 | CCOC(=O)c1c(C)[nH]c(C(=O)COC(=O)C2(C)CC2(Cl)Cl)c1C (stereo not given) | 14.1 µM [rising, single point] | 35.5 µM [rising, single point]
10 | Cc1[nH]c2ccc(F)cc2c1CCN(Cc1ccncc1)C(=S)Nc1ccc(F)cc1 | 5.62 µM [falling, single point] | 5.62 µM [falling, single point]
4 | COc1ccc(NC(=S)N(CCc2c(C)[nH]c3ccc(C)cc23)Cc2cccs2)cc1 | 14.1 µM [rising, partial curve] | 11.2 µM [rising, partial curve, poor fit]
2 | O=C(c1ccc2c(c1)OCO2)N(Cc1cccs1)C1(C(=O)NC2CCCCC2)CCCCC1 | – | 0.178 µM [falling, full curve, poor fit]
22 | Cc1ccc(C)c(N2CCN(C(=O)c3cc(S(=O)(=O)N4CCC(C)CC4)cn3C)CC2)c1 | – | 0.141 µM [falling, single point]

Continuation.

Row | Structure (SMILES) | AC50 [1] | AC50 [2]
29 | CCCCCOc1ccc(CSc2ncn[nH]2)cc1 | 31.6 µM [rising, single point] | –
30 | CCCn1c2ccccc2c2cnn(CC(=O)N(Cc3ccccc3)C(C)C)c(=O)c21 | 20 µM [falling, single point] | 22.4 µM [falling, single point]
31 | N#CNC(=Nc1cccc(F)c1)SCc1ccccc1F | 11.2 µM [rising, partial curve] | –
32 | O=S(=O)(CCc1nc2ccccc2[nH]1)c1ccc(Br)cc1 | 22.4 µM [rising, single point] | –
33 | CC1(C)C(=O)N(CCN2CCC(C(=O)c3ccc(F)cc3)CC2)c2ccccc21 | 14.1 µM [falling, single point] | 22.4 µM [falling, single point]
34 | CC(=O)Nc1cccc(OCC(=O)NCCC2=CCCCC2)c1 | 0.0282 µM [falling, partial curve, poor fit] | 0.0316 µM [falling, full curve, poor fit]
35 | Cc1nnnn1/C(=C\c1ccccc1)C(=O)OCC(=O)N(C)C1CCS(=O)(=O)C1 (stereo not given) | 0.02 µM [falling, full curve, poor fit] | –
36 | Cc1nc2ccccn2c1C(=O)NNS(=O)(=O)c1ccc(C(C)(C)C)cc1 | 3.98 µM [rising, full curve] | 5.62 µM [rising, partial curve]
37 | Cc1ccc2nc(CN3CCN(C(=O)Nc4ccc(C)c(F)c4)CC3)oc2c1 | – | 0.0708 µM [rising, full curve, poor fit]
38 | CC(c1n[nH]c(=S)n1-c1ccc(F)cc1)N1CCCCC1 (stereo not given) | 2.82 µM [falling, single point] | –
39 | Cc1ccccc1-c1ccc2ncnc(NCc3cccnc3)c2c1 | 17.8 µM [falling, partial curve] | 20 µM [falling, partial curve, poor fit]
40 | CCCCN(C)CCCNC(=O)c1cc(-c2cccnc2)nc2ccccc12 | – | 0.01 µM [falling, full curve, poor fit]
41 | O=C(/C=C/c1ccc(Cl)c([N+](=O)[O-])c1)c1cccnc1 | 5.62 µM [falling, single point] | 0.708 µM [falling, full curve, poor fit]
42 | CCC1=Nc2cc(C(=O)NCc3ccc(C)cc3)ccc2Sc2ccc(C)cc21 | 7.08 µM [rising, partial curve] | 0.708 µM [rising, full curve, poor fit]
43 | N#CCC(CNc1ncc(C(F)(F)F)cc1Cl)OC(=O)c1cccc([N+](=O)[O-])c1 (stereo not given) | 35.5 µM [rising, single point] | –
44 | COc1cc2nc(/C=C/c3ccc(N(C)C)cc3)sc2cc1SC | 20 µM [rising, single point] | –
45 | O=C1NC(=O)/C(=C/c2ccccc2Oc2ccc(Cl)cc2)S1 | 20 µM [rising, single point] | –
46 | Cc1cc(C(=O)CSc2nc(N)cc(N)n2)c(C)n1-c1cccc(C(F)(F)F)c1 | 12.6 µM [rising, partial curve] | –
47 | Cc1ccc(C(=O)CSc2cc(C)nc(SCC(=O)c3ccccc3)n2)cc1 | 20 µM [rising, single point] | –
48 | O=C(CSc1nc2ccccc2o1)N1c2ccccc2Sc2ccc(C(F)(F)F)cc21 | 35.5 µM [rising, single point] | –
49 | Cc1cc(NN)nc(NS(=O)(=O)c2ccccc2Cl)n1 | 5.62 µM [falling, partial curve] | 6.31 µM [falling, full curve]
50 | COc1ccc(C2CC3(CC(C)(C)NC(SC)=N3)Oc3cc(O)cc(C)c32)cc1 (stereo not given) | 1.78 µM [rising, partial curve] | –
51 | Cc1ccc(N2CC(C(=O)Nc3ccc(S(=O)(=O)Nc4nccc(C)n4)cc3)CC2=O)cc1 (stereo not given) | 10 µM [falling, partial curve, poor fit] | –
52 | CCn1c(SCC(=O)c2cc(C)ccc2C)nc2cc(S(=O)(=O)N3CCOCC3)ccc21 | 25.1 µM [rising, partial curve] | 15.8 µM [rising, single point]
53 | Cc1ccc(NC(=O)C(=O)NCC(c2ccc3c(c2)OCO3)N2CCN(c3ccccc3)CC2)cc1 (stereo not given) | 0.02 µM [falling, full curve, poor fit] | –
54 | C=CCc1cc(C)ccc1OCCOCCC(C(=O)OCC)C(=O)OCC | 1.12 µM [falling, partial curve, poor fit] | 1.58 µM [falling, full curve]
55 | CC(C)N(Cc1nc(-c2ccc(Cl)cc2)no1)C(=O)c1cccs1 | 20 µM [rising, partial curve] | –
